Data published in paper PMC6834663.
No constants are given. Whether binding was seen depends on the method and setting. In cells and extracts the contact can be indirect. Some binding calls cover weakened binding; strength is not graded here. For part of these data: Where a sequence is shown, tags or fusion partners need not be part of it.

The chains behind the UniProt entries cited, without tags or fusion partners.
UniProt Q16665: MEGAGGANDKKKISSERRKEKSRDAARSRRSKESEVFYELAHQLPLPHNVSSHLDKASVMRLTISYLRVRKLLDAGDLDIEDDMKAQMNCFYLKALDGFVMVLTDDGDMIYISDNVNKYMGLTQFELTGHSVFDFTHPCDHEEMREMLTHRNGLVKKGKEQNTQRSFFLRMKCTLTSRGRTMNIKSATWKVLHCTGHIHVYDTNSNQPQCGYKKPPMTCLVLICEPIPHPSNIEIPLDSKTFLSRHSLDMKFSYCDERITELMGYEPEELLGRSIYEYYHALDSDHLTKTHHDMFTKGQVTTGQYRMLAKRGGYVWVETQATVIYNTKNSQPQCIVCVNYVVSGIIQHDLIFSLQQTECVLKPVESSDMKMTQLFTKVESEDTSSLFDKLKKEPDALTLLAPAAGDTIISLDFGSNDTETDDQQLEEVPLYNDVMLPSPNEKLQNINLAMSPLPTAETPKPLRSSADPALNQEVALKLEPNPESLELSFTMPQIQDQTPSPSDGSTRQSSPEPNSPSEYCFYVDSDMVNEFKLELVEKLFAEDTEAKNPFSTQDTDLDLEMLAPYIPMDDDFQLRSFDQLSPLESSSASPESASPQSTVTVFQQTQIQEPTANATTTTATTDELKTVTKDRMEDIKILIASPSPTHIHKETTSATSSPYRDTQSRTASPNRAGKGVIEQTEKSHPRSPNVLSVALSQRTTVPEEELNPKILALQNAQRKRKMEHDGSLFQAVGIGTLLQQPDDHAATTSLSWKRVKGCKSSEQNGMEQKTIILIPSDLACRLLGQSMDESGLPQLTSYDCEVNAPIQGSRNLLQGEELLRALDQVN
UniProt P08047: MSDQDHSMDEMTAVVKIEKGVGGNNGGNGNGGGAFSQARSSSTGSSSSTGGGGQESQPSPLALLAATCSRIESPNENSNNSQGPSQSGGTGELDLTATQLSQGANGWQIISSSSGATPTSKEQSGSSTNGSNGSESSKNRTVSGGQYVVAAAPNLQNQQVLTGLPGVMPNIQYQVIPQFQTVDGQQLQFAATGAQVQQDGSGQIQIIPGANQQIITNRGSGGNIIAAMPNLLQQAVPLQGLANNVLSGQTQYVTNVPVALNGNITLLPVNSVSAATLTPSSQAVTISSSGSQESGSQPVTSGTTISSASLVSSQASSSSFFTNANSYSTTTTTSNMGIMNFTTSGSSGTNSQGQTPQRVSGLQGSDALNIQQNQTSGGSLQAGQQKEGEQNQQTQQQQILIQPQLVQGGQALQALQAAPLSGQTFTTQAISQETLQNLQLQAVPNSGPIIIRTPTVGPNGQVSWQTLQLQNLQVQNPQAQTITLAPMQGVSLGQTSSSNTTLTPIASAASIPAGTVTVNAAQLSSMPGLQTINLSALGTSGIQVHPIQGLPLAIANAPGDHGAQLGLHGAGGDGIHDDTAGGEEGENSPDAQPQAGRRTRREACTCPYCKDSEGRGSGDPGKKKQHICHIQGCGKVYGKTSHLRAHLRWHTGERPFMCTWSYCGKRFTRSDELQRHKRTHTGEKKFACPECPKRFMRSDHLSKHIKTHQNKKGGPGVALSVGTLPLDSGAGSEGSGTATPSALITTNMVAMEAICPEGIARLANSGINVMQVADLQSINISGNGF
UniProt P51532: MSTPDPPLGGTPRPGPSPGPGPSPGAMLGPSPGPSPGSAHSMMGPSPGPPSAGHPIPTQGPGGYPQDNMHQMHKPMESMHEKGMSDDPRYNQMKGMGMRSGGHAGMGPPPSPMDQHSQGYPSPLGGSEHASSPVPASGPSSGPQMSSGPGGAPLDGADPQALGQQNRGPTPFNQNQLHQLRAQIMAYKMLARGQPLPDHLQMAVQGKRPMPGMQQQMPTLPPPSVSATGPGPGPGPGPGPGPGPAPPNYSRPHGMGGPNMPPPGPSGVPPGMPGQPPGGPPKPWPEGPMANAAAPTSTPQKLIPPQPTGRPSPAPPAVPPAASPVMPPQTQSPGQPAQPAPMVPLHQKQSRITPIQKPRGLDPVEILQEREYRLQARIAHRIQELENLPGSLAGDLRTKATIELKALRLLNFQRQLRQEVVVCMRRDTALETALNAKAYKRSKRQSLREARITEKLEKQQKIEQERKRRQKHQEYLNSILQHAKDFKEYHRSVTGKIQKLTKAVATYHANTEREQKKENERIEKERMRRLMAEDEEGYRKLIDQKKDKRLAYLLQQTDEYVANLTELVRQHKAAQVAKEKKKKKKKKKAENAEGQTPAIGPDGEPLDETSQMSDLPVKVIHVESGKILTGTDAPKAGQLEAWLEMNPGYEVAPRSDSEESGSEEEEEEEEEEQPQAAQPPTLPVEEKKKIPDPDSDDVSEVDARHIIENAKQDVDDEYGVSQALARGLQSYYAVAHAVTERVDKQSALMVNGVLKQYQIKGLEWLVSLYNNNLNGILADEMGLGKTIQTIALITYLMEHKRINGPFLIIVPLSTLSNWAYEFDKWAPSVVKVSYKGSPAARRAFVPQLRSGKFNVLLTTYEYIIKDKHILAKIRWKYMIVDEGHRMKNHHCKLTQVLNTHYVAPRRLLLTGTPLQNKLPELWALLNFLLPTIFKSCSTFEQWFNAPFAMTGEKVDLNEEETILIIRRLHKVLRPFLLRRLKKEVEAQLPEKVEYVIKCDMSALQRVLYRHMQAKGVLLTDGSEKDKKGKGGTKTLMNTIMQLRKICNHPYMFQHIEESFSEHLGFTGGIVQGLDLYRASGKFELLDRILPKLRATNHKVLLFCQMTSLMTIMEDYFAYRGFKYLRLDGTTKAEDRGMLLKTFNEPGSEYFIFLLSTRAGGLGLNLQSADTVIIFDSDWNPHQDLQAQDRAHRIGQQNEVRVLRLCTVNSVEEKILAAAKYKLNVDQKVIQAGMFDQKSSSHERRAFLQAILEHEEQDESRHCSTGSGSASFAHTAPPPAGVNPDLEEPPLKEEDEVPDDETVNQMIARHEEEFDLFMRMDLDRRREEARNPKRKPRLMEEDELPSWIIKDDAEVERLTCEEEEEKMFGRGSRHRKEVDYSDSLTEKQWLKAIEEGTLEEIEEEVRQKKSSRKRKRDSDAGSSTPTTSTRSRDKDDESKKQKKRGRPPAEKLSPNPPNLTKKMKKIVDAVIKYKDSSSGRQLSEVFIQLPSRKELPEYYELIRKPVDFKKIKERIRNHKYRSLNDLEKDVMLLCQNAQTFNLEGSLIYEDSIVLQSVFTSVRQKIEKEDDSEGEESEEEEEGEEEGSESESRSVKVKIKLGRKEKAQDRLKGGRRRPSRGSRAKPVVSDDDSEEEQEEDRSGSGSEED

Assays:
Test in all cases: co-IP; tagged proteins co-transfected into HEK293 cells; whole-cell lysates in RIPA buffer (50 mM Tris pH 7.4, 150 mM NaCl, 1% Triton X-100); specific antibodies or pre-immune IgG overnight, Protein A/G-plus Agarose beads; Western blot
GFP-tagged HIF-1α = GFP-tagged HIF-1α (UniProt Q16665)
His-tagged Sp1 = His-tagged Sp1 (UniProt P08047)
Myc-tagged KDM3A = molecular target: T1, Myc-tagged KDM3A (UniProt Q9Y4C1)
T1 sequence: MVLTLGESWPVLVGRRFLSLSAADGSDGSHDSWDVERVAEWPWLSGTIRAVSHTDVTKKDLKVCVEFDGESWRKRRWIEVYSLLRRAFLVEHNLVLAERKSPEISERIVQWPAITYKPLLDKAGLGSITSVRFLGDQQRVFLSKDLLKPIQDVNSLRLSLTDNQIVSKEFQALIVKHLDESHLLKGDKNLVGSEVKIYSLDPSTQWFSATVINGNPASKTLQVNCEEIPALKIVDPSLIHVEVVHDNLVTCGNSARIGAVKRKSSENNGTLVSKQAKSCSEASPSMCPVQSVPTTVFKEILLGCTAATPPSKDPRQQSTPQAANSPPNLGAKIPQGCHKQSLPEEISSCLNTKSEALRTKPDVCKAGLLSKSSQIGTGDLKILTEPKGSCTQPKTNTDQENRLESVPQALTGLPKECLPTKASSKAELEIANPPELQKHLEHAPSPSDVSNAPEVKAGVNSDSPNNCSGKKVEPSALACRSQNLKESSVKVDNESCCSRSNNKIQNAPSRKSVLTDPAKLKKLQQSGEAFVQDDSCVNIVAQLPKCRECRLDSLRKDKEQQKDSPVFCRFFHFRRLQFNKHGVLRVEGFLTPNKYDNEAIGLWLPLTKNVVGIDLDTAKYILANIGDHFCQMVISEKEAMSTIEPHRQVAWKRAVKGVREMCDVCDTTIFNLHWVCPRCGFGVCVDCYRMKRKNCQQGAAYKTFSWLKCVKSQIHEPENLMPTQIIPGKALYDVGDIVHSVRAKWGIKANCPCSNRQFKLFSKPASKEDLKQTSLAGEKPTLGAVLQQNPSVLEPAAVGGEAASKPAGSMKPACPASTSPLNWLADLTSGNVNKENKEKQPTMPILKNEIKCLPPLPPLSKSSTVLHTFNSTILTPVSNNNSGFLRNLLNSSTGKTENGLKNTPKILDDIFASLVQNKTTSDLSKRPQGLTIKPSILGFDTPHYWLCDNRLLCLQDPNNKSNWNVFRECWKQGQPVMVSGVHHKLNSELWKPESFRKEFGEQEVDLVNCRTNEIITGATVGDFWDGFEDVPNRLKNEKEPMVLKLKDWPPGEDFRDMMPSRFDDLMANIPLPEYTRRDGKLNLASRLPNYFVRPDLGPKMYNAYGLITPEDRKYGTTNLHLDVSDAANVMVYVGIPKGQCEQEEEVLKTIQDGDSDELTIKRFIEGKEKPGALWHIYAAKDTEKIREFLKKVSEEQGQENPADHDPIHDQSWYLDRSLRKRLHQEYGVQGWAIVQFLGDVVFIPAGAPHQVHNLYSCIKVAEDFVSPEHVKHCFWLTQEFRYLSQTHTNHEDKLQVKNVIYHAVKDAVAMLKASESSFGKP

Measured: binding

HA-tagged BRG1 (Brahma related gene 1) (from UniProt P51532 1-1647)
binds: GFP-tagged HIF-1α | His-tagged Sp1 | Myc-tagged KDM3A
